# In paper PMC12178783:
# Chains of the proteins cited; added tags and fusions are not shown. Residues count along the entry.
# UniProt P54762, residues 18-984: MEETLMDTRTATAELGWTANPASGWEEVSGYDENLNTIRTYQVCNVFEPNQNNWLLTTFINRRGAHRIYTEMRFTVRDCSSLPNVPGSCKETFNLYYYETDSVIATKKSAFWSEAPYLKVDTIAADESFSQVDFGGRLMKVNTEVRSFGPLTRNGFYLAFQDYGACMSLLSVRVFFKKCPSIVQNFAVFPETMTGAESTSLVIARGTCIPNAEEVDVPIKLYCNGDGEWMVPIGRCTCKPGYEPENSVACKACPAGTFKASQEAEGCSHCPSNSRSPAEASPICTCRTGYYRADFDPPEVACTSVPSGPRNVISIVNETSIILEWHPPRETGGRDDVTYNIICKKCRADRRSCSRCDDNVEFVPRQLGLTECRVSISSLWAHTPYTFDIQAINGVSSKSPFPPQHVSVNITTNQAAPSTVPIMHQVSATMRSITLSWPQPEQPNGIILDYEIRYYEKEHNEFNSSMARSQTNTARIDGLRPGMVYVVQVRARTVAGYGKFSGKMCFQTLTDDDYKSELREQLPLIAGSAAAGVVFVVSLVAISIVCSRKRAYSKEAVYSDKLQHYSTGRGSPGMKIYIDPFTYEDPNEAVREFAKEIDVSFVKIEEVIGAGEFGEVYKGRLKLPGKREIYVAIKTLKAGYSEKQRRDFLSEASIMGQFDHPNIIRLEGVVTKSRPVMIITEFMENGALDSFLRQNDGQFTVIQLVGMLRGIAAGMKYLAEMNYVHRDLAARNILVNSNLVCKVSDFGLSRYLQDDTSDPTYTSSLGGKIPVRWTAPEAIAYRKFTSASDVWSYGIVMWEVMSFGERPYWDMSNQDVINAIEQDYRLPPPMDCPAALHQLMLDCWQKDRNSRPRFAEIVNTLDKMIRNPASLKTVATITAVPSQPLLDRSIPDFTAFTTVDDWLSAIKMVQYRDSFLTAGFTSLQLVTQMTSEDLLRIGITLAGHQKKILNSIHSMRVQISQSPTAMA
# UniProt P49841: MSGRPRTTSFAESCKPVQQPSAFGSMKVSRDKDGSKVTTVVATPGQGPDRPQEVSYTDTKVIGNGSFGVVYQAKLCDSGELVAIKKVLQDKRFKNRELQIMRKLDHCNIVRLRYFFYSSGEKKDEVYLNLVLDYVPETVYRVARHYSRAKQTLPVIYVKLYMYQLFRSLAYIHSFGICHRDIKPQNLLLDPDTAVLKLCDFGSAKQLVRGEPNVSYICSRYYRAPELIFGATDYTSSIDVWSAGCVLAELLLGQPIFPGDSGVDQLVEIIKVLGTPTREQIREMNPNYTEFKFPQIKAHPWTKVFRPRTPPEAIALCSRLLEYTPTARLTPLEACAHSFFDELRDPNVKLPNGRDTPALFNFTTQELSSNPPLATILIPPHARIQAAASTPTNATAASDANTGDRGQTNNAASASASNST
# No constants are given. Whether binding was seen depends on the method and setting. In cells and extracts the contact can be indirect. Some entries that bind do so weakly or less than the wild type.
# Molecular target: EPH receptor B1 (EPHB1) protein (human (endogenous in the paper's human prostate cell lines)) (UniProt P54762)
# Test: co-IP; RIPA lysate of cultured cells with phosphatase and protease inhibitors; anti-EPHB1 or anti-GSK3B antibody loaded on Protein A/G magnetic beads; beads washed five times; SDS-PAGE and western blot
substance,measurement,value
Glycogen Synthase Kinase 3 Beta (GSK3B) protein (from UniProt P49841 1-420) (enzyme),binding,binds
